Binding data for 1 substance are collected here from paper PMC7618116.

The chains behind the UniProt entries cited, without tags or fusion partners. Residues count along the entry.
UniProt Q61037: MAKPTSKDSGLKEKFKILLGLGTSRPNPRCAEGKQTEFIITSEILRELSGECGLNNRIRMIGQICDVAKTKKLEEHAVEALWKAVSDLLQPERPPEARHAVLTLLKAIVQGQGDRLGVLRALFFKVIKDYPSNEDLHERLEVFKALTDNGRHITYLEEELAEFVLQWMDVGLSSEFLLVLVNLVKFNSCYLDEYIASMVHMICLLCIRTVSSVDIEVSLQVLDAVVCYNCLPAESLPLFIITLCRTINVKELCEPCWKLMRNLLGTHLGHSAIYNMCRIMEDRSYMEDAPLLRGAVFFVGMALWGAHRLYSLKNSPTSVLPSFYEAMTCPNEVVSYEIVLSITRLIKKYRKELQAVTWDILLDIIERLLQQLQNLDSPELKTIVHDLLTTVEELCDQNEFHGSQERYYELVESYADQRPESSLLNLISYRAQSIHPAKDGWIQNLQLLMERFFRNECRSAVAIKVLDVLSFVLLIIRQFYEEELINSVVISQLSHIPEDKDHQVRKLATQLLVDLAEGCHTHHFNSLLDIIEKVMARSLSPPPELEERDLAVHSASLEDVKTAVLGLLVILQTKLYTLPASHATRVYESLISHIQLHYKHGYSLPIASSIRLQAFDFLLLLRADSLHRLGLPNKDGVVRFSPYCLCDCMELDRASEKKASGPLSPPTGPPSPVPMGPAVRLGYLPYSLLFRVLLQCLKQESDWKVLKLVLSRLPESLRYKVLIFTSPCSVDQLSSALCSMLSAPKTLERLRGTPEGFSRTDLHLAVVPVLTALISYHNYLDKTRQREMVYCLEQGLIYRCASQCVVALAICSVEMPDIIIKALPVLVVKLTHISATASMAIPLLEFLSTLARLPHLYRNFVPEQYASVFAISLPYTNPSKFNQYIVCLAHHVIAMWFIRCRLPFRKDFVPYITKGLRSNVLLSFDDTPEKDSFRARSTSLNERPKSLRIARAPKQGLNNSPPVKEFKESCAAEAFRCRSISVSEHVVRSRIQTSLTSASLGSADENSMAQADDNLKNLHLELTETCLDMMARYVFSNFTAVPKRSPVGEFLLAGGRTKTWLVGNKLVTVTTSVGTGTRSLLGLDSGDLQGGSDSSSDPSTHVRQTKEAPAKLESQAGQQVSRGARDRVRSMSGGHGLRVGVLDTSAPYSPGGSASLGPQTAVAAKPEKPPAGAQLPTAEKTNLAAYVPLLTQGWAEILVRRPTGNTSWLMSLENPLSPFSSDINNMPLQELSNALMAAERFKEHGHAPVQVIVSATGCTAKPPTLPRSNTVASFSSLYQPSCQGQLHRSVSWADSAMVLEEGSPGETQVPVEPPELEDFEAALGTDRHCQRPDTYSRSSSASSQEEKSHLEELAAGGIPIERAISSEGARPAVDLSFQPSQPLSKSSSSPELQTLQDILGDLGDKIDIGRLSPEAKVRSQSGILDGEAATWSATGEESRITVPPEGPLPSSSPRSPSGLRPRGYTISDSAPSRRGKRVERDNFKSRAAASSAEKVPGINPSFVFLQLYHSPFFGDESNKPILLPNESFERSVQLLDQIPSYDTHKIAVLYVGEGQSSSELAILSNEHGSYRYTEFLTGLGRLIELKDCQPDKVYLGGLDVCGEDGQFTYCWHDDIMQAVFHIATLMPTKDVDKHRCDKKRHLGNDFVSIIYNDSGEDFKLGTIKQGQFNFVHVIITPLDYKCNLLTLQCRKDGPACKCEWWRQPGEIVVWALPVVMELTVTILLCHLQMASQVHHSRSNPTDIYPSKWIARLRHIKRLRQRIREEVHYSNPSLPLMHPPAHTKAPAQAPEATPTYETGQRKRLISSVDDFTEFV
UniProt Q61527, residues 26-1308: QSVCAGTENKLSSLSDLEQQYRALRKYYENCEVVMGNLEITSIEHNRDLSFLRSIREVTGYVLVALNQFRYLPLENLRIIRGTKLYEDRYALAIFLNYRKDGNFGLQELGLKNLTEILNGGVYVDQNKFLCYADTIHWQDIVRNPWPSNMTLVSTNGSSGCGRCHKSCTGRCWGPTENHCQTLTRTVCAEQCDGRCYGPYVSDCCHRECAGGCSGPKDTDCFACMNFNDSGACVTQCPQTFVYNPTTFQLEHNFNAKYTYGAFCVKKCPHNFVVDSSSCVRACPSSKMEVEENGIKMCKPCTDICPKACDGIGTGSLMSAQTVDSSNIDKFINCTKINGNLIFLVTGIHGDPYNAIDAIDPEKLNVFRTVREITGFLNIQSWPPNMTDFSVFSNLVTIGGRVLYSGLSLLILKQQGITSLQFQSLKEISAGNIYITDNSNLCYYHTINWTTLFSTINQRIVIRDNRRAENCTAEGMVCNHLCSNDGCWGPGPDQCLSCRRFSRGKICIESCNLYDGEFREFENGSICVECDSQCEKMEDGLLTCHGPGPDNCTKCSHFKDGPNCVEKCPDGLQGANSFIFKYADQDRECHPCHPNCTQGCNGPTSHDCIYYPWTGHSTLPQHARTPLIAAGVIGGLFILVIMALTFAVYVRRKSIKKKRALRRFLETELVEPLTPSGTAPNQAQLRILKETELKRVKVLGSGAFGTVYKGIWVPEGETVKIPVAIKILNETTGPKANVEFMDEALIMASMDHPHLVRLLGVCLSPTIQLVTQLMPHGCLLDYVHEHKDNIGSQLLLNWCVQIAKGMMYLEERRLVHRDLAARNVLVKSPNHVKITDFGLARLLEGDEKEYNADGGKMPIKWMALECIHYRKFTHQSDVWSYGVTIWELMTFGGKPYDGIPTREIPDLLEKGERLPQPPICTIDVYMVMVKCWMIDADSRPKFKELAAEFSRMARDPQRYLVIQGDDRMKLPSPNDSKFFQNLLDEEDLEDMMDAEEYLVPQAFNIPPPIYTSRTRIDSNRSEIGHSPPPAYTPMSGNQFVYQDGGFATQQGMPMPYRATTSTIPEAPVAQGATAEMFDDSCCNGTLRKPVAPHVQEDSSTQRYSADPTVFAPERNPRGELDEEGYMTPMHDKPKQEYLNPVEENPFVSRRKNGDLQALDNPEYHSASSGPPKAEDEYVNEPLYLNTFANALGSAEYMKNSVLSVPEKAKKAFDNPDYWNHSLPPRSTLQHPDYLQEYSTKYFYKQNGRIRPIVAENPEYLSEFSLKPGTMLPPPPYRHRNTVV

These are yes or no findings as the source states them, for the method shown. In cells and extracts the contact can be indirect. Some binding calls cover weakened binding; strength is not graded here.

The target of the test is TSC subunit 2 (Tsc2) (mouse (endogenous in cortical synaptosomes)) (UniProt Q61037). The experiment in a line: co-IP; cortical synaptosomes from P15 C57BL/6 mice in 20 mM Tris-HCl pH 8, 120 mM NaCl, 1% NP40, 1% glycerol; overnight at 4 °C with rabbit anti-Tsc2, rabbit anti-ErbB4 or rabbit IgG isotype control; Dynabeads Protein G; six washes; Western blot. Background: A western blot detects proteins with antibodies after separation by electrophoresis.

Regarding “Erb-B2 receptor tyrosine kinase 4 (ErbB4) (from UniProt Q61527 26-1308)”, the binding result is on record as “binds”.
